PMC3498327
No constants are given. Whether binding was seen depends on the method and setting. In cells and extracts the contact can be indirect. Some binding calls cover weakened binding; strength is not graded here.

Protein sequences, listed by entry. Tags and fused reporters are not part of them.
UniProt Q60974: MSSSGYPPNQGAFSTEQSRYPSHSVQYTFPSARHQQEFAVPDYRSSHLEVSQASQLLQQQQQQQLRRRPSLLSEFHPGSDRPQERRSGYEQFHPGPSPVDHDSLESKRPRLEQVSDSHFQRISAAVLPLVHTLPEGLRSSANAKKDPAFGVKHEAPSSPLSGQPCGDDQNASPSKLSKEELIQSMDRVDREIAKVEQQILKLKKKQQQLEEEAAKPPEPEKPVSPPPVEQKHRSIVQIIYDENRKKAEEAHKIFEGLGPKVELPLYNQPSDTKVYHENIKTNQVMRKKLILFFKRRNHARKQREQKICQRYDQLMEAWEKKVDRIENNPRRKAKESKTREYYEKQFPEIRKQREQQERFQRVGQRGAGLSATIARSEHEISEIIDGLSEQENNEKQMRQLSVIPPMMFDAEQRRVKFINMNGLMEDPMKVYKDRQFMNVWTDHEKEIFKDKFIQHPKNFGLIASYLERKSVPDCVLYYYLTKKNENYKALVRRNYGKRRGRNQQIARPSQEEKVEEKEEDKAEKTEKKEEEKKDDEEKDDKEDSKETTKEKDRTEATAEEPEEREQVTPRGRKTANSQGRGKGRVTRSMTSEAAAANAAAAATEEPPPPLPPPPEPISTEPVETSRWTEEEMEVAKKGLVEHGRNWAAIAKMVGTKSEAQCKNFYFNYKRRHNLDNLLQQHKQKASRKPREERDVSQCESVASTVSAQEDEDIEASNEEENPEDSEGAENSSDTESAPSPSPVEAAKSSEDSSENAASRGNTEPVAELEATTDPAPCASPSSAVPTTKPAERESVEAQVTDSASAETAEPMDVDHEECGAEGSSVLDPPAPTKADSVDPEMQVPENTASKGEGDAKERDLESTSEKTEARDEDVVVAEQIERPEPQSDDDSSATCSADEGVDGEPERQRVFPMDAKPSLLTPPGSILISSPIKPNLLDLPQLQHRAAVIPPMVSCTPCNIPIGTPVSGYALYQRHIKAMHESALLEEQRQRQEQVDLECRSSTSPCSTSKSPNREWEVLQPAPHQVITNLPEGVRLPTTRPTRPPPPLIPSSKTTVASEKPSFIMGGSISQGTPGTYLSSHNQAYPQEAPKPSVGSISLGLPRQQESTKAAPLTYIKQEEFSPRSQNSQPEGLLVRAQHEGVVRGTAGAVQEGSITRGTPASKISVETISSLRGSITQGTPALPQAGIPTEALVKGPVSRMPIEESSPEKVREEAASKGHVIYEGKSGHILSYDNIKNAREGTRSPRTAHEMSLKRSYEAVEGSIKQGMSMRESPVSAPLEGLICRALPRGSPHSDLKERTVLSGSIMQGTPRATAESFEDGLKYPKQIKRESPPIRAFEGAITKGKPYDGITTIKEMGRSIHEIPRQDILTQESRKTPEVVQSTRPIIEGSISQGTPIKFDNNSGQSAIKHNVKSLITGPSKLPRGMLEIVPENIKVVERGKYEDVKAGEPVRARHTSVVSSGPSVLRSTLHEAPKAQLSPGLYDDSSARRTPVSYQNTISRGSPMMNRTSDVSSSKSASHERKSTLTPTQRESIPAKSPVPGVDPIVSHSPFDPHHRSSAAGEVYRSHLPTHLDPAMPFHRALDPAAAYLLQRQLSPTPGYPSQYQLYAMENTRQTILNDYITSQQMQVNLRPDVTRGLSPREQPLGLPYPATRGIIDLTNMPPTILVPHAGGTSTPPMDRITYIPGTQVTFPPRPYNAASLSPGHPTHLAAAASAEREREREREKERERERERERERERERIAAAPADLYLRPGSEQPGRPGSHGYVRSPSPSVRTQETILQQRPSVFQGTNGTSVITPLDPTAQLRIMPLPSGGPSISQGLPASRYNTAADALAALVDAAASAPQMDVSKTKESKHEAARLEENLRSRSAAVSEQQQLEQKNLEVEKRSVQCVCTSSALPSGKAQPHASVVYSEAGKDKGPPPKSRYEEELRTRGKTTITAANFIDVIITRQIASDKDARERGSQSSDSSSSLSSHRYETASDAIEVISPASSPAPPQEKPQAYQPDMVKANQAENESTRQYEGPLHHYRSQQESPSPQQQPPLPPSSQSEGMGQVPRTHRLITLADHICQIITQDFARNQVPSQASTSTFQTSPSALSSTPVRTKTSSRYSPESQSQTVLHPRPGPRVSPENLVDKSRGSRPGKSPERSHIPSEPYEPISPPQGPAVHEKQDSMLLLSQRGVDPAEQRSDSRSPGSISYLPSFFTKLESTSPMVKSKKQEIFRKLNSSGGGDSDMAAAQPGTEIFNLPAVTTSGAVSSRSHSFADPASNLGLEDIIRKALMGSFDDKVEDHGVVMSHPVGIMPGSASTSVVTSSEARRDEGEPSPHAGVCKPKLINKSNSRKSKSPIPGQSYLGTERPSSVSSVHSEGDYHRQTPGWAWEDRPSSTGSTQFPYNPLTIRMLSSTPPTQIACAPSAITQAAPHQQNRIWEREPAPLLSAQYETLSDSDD
UniProt P37238: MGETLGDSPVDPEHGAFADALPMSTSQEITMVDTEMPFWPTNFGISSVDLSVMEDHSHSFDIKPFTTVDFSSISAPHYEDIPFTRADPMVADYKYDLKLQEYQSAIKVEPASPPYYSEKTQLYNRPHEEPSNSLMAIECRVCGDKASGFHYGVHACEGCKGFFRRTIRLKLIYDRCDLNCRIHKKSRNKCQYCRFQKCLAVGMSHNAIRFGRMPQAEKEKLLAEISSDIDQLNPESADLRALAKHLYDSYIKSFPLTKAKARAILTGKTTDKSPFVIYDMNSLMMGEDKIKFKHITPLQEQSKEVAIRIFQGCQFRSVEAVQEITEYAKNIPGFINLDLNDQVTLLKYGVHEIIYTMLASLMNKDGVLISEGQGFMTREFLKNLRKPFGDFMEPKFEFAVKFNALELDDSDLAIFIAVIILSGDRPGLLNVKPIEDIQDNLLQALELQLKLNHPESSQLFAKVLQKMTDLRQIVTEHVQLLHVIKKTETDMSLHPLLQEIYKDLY

Biological target: T1, Sirtuin 1 (SIRT1) (mouse (endogenous in 3T3-L1)) (UniProt Q923E4)
T1 sequence: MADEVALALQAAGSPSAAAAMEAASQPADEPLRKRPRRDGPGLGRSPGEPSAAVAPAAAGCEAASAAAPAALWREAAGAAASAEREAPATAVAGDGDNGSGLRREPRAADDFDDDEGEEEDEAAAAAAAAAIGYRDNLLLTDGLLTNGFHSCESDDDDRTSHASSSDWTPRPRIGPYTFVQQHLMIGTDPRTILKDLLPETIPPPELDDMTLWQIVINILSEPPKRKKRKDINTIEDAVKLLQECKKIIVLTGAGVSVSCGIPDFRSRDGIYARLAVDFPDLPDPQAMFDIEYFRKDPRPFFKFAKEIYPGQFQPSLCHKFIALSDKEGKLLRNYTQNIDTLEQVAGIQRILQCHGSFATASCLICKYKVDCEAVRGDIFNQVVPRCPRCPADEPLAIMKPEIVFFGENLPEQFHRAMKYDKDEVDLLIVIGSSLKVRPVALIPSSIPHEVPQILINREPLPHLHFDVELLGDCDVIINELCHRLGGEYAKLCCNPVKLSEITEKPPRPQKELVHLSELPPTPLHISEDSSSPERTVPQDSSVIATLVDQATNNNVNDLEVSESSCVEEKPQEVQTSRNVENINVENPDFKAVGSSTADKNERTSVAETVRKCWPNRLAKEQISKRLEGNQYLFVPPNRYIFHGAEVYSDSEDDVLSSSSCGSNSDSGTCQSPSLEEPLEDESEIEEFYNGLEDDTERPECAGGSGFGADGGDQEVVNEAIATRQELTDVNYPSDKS
Assay: co-IP; nuclear extracts of differentiated 3T3-L1 adipocytes treated with 100 µmol/L LA or t10c12 CLA for 12 h; immunoprecipitated overnight with antibody to SIRT1, protein A agarose beads, washed five times; immunoblot for SIRT1, PPARγ or NCoR1

binding	Substance
binds	nuclear receptor corepressor 1 (NCoR1) (from UniProt Q60974 1-2453)
binds	peroxisome proliferator-activated receptor γ (PPARγ) (from UniProt P37238 1-505)
